For the test, the target named is FLAG-tagged full length TEM8 (tumor endothelial marker 8) (human) (UniProt Q9H6X2). In words: affinity purification with mass spectrometry; FLAG-beads IP from MDA-MB-231-TEM8 and SUM159-TEM8 cells against ctrl cells, cells treated with MG132 (20 uM, 2 h); on-bead trypsin digest, Orbitrap Elite, Maxquant; hits: LFQ intensity >10^6 in TEM8 groups and 0 in ctrl.

Amino acid sequences for entries named in this document (tags omitted). Residues count along the entry.
UniProt Q9H6X2, residues 33-564: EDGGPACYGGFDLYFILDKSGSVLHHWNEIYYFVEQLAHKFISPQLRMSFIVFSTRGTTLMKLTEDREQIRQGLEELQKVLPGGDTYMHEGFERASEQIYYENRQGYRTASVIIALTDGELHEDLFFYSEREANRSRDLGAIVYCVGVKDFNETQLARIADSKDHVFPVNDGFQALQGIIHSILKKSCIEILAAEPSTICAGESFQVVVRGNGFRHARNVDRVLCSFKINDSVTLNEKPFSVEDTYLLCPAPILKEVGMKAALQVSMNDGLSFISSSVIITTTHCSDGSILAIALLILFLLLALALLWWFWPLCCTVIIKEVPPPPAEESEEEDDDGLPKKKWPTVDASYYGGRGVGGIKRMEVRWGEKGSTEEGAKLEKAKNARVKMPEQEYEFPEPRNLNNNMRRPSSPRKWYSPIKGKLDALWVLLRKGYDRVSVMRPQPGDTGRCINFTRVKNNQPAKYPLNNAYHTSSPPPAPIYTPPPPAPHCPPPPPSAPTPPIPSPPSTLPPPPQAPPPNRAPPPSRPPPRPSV
UniProt P63092: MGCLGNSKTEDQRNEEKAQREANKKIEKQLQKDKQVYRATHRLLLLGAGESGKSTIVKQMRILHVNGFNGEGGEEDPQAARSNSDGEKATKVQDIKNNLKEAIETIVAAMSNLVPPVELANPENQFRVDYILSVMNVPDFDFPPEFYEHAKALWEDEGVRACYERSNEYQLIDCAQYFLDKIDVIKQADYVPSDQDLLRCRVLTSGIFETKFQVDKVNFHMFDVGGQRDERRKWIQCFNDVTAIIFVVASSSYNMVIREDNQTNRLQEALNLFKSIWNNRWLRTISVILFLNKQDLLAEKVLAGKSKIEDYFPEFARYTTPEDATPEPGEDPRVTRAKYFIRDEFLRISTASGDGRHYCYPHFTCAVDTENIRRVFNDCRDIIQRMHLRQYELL

Results are given in words; binding and its absence hold for the method and conditions named. In cells and extracts the contact can be indirect. Here binding means that the protein was enriched with, or labelled near, the bait; the list need not be complete.

“guanine nucleotide-binding protein G(s) subunit alpha isoforms short (GNAS), endogenous (from UniProt P63092 1-394)”: the binding entry was “binds”.

(Values after article PMC8292527.)
